Data taken from patent US8410145B2, “Insecticidal compounds” (Syngenta Crop Protection LLC, priority 2007, dated 2013).
Some of these results come from one statement about several compounds together.

Tests used:
Assay type in all cases: in vivo
[1] = tested on: Diabrotica balteata (Corn Root Worm); assay: Diabrotica balteata larvae test on artificial diet; conditions: 200 ppm (concentration in well 18 ppm), L2 larvae, larval mortality and growth regulation after 5 days
From the text: (§1) Cotton leaf discs were placed on agar in a 24-well microtiter plate and sprayed with test solutions at an application rate of 200 ppm. After drying, the leaf discs were infested with 5 to L1 larvae. The samples were checked for mortality, feeding behavior, and growth regulation 3 days after treatment (DAT). The following compounds gave at least 80% control of Spodoptera littoralis: A1, A2, A3, A4, A6, A9, A10, A11, A12, A13, A14, A15, A16, A19, A20, A22, A23, A25, A26, A27, B1, B2, B3, B5, B6, B7, B8, B9, B11, B12, B13, B15, B16, B18, B19, B20, B21, B22, B24, B26, B27, B28, C1, C2, C3, C4, C5, C6, C7, C8, C9, C10, C12, C13, C16, C19, C20, C21, C22, C23, D1, D2, D3, D4, D5, D6, D7, D8, D9, D10, D11, D12, D13, D14, D15, D16, D17, D18, D19, D20, D21, D22, D23, D24. Heliothis virescens (Tobacco Budworm): Eggs (0-24 h old) were placed in 24-well microtiter plate on artificial diet and treated with test solutions at an application rate of 200 ppm (concentration in well 18 ppm) by pipetting. After an incubation period of 4 days, samples were checked for egg mortality, larval mortality, and growth regulation. The following compounds gave at least 80% control of Heliothis virescens: A1, A2, A3, A4, A13, A15, A17, A19, A20, A22, A23, A25, A26, A28, B1, B2, B3, B5, B6, B7, B9, B11, B13, B15, B18, B19, B20, B21, B25, B26, B27, B28, C1, C2, C3, C4, C5, C6, C7, C8, C9, C10, C12, C14, C16, C17, C19, C20, C21, C22, D1, D2, D3, D4, D5, D6, D7, D8, D9, D10, D11, D12, D13, D14, D15, D16, D17, D18, D19, D20, D21, D22, D23, E1, E2, E3, E4, E5. Plutella xylostella (Diamond Back Moth): 24-well microtiter plate (MTP) with artificial diet was treated with test solutions at an application rate of 200 ppm (concentration in well 18 ppm) by pipetting. After drying, the MTP's were infested with L2 larvae (7-12 per well). After an incubation period of 6 days, samples were checked for larval mortality and growth regulation. The following compounds gave at least 80% control of Plutella xylostella: A1, A3, A4, A10, All, A15, A19, A23, A25, B1, B2, B3, B5, B6, B7, B8, B9, B11, B13, B15, B18, B19, B20, B21, B26, B27, B28, C1, C2, C3, C4, C6, C7, C8, C9, C12, C16, C19, C20, C22, D1, D2, D3, D4, D5, D6, D7, D8, D9, D10, D12, D13, D14, D15, D16, D17, D18, D19, D20, D21, D22, D23, E1, E3, E5. Diabrotica balteata (Corn Root Worm): A 24-well microtiter plate (MTP) with artificial diet was treated with test solutions at an application rate of 200 ppm (concentration in well 18 ppm) by pipetting. After drying, the MTP's were infested with L2 larvae (6-10 per well). After an incubation period of 5 days, samples were checked for larval mortality and growth regulation. The following compounds gave at least 80% control of Diabrotica balteata: A2, A3, A4, A9, A11, A12, A13, A14, A15, A17, A19, A21, A22, A23, A24, A25, A26, B1, B2, B3, B6, B7, B8, B11, B13, B14, B15, B18, B19, B20, B21, B22, B26, B28, C1, C2, C3, C4, C5, C6, C7, C8, C9, C10, C12, C14, C15, C16, C19, C20, C21, C22, C23, C26, D1, D2, D4, D5, D6, D7, D8, D9, D10, D12, D14, D15, D16, D17, D18, D19, D20, D21, D22, D23, E2, E3, E5. Thrips tabaci (Onion Thrips): Sunflower leaf discs were placed on agar in a 24-well microtiter plate and sprayed with test solutions at an application rate of 200 ppm. After drying, the leaf discs were infested with an […] population of mixed ages. After an incubation period of 7 days, samples were checked for mortality. The following compounds gave at least 80% control of Thrips tabaci: B1, B7, B11, B15, B18, B19, B28, D1, D2, D3, D4, D5, D6, D7, D8, D9, D10, D12, D16, D18, D19, D20, D21, D23. Tetranychus urticae (Two-Spotted Spider Mite): Bean leaf discs on agar in 24-well microtiter plates were sprayed with test solutions at an application rate of 200 ppm. After drying, the leaf discs are infested with mite populations of mixed ages. 8 days later, discs are checked for egg mortality, larval mortality, and adult mortality. […]

[2] = tested on: Heliothis virescens (Tobacco Budworm); assay: Heliothis virescens egg test on artificial diet; conditions: 200 ppm (concentration in well 18 ppm), eggs 0-24 h old on artificial diet; egg mortality, larval mortality, growth regulation after 4 days
From the text: as §1

[3] = tested on: Spodoptera littoralis (Egyptian Cotton Leafworm); assay: Spodoptera littoralis cotton leaf disc spray test; conditions: 200 ppm spray on cotton leaf discs, L1 larvae; mortality, feeding behavior, growth regulation 3 DAT
From the text: as §1

[4] = tested on: Plutella xylostella (Diamond Back Moth); assay: Plutella xylostella larvae test on artificial diet; conditions: 200 ppm (concentration in well 18 ppm), L2 larvae, larval mortality and growth regulation after 6 days
From the text: as §1

Cc1cc(F)ccc1C(=O)Nc1cccc(C2=NOC(c3cc(Cl)cc(Cl)c3)(C(F)(F)F)C2)c1 (racemic) [A13]
control of Diabrotica balteata [1]: at least 80% | control of Heliothis virescens [2]: at least 80% | control of Spodoptera littoralis [3]: at least 80%

O=C(Nc1cccc(C2=NOC(c3cc(Cl)cc(Cl)c3)(C(F)(F)F)C2)c1)c1cc(Cl)ccc1F (racemic) [A14]
control of Diabrotica balteata [1]: at least 80% | control of Spodoptera littoralis [3]: at least 80%

O=C(Nc1cccc(C2=NOC(c3cc(Cl)cc(Cl)c3)(C(F)(F)F)C2)c1)c1ccc([N+](=O)[O-])cc1Cl (racemic) [A15]
control of Diabrotica balteata [1]: at least 80% | control of Plutella xylostella [4]: at least 80% | control of Heliothis virescens [2]: at least 80% | control of Spodoptera littoralis [3]: at least 80%

O=C(Nc1cccc(C2=NOC(c3cc(Cl)cc(Cl)c3)(C(F)(F)F)C2)c1)c1ccc(OC(F)(F)F)cc1 (racemic) [A17]
control of Diabrotica balteata [1]: at least 80% | control of Heliothis virescens [2]: at least 80%

O=C(Nc1cccc(C2=NOC(c3cc(Cl)cc(Cl)c3)(C(F)(F)F)C2)c1)c1ccc(C(F)(F)F)cc1 (racemic) [A19]
control of Diabrotica balteata [1]: at least 80% | control of Plutella xylostella [4]: at least 80% | control of Heliothis virescens [2]: at least 80% | control of Spodoptera littoralis [3]: at least 80%

O=C(Nc1cccc(C2=NOC(c3cc(Cl)cc(Cl)c3)(C(F)(F)F)C2)c1)c1ccccc1OC(F)(F)F (racemic) [A20]
control of Heliothis virescens [2]: at least 80% | control of Spodoptera littoralis [3]: at least 80%

O=C(Nc1cccc(C2=NOC(c3cc(Cl)cc(Cl)c3)(C(F)(F)F)C2)c1)c1ccccc1C(F)(F)F (racemic) [A22]
control of Diabrotica balteata [1]: at least 80% | control of Heliothis virescens [2]: at least 80% | control of Spodoptera littoralis [3]: at least 80%

Cc1nnsc1C(=O)Nc1cccc(C2=NOC(c3cc(Cl)cc(Cl)c3)(C(F)(F)F)C2)c1 (racemic) [A24]
control of Diabrotica balteata [1]: at least 80%

O=C(Nc1cccc(C2=NOC(c3cc(Cl)cc(Cl)c3)(C(F)(F)F)C2)c1)c1cc(C(F)(F)F)ccc1F (racemic) [A27]
control of Spodoptera littoralis [3]: at least 80%

O=C(Nc1cccc(C2=NOC(c3cc(Cl)cc(Cl)c3)(C(F)(F)F)C2)c1)OCC(Cl)(Cl)Cl (racemic) [A28]
control of Heliothis virescens [2]: at least 80%

O=C(Nc1cccc(C2=NOC(c3cc(Cl)cc(Cl)c3)(C(F)(F)F)C2)c1F)c1cc(Cl)ccc1F (racemic) [B8]
control of Diabrotica balteata [1]: at least 80% | control of Plutella xylostella [4]: at least 80% | control of Spodoptera littoralis [3]: at least 80%

O=C(Nc1cccc(C2=NOC(c3cc(Cl)cc(Cl)c3)(C(F)(F)F)C2)c1F)c1ccc([N+](=O)[O-])cc1Cl (racemic) [B9]
control of Plutella xylostella [4]: at least 80% | control of Heliothis virescens [2]: at least 80% | control of Spodoptera littoralis [3]: at least 80%

O=C(Nc1cccc(C2=NOC(c3cc(Cl)cc(Cl)c3)(C(F)(F)F)C2)c1F)c1ccc(F)c(C(F)(F)F)c1 (racemic) [B12]
control of Spodoptera littoralis [3]: at least 80%

O=C(Nc1cccc(C2=NOC(c3cc(Cl)cc(Cl)c3)(C(F)(F)F)C2)c1F)c1ccccc1OC(F)(F)F (racemic) [B14]
control of Diabrotica balteata [1]: at least 80%

O=C(Nc1cccc(C2=NOC(c3cc(Cl)cc(Cl)c3)(C(F)(F)F)C2)c1F)OCC(Cl)(Cl)Cl (racemic) [B24]
control of Spodoptera littoralis [3]: at least 80%

Cc1cc(F)ccc1C(=O)Nc1cc(C2=NOC(c3cc(Cl)cc(Cl)c3)(C(F)(F)F)C2)ccc1F (racemic) [C10]
control of Diabrotica balteata [1]: at least 80% | control of Heliothis virescens [2]: at least 80% | control of Spodoptera littoralis [3]: at least 80%

O=C(Nc1cc(C2=NOC(c3cc(Cl)cc(Cl)c3)(C(F)(F)F)C2)ccc1F)c1ccc(OC(F)(F)F)cc1 (racemic) [C14]
control of Diabrotica balteata [1]: at least 80% | control of Heliothis virescens [2]: at least 80%

O=C(Nc1cc(C2=NOC(c3cc(Cl)cc(Cl)c3)(C(F)(F)F)C2)ccc1F)c1ccc(F)c(C(F)(F)F)c1 (racemic) [C15]
control of Diabrotica balteata [1]: at least 80%

O=C(Nc1cc(C2=NOC(c3cc(Cl)cc(Cl)c3)(C(F)(F)F)C2)ccc1F)c1ccccc1OC(F)(F)F (racemic) [C17]
control of Heliothis virescens [2]: at least 80%

O=C(Nc1cc(C2=NOC(c3cc(Cl)cc(Cl)c3)(C(F)(F)F)C2)ccc1F)c1ccccc1C(F)(F)F (racemic) [C21]
control of Diabrotica balteata [1]: at least 80% | control of Heliothis virescens [2]: at least 80% | control of Spodoptera littoralis [3]: at least 80%

O=C(Nc1cc(C2=NOC(c3cc(Cl)cc(Cl)c3)(C(F)(F)F)C2)ccc1F)OCC(Cl)(Cl)Cl (racemic) [C26]
control of Diabrotica balteata [1]: at least 80%

N#Cc1ccc(C2=NOC(c3cc(Cl)cc(Cl)c3)(C(F)(F)F)C2)cc1NC(=O)c1cc(Cl)ccc1F (stereo not shown) [D11]
control of Heliothis virescens [2]: at least 80% | control of Spodoptera littoralis [3]: at least 80%

N#Cc1ccc(C2=NOC(c3cc(Cl)cc(Cl)c3)(C(F)(F)F)C2)cc1NC(=O)c1cc(C(F)(F)F)ccc1F (stereo not shown) [D24]
control of Spodoptera littoralis [3]: at least 80%

Cc1cc(NC(=O)c2cccc([N+](=O)[O-])c2C)cc(C2=NOC(c3cc(Cl)cc(Cl)c3)(C(F)(F)F)C2)c1 (stereo not shown) [E2]
control of Diabrotica balteata [1]: at least 80% | control of Heliothis virescens [2]: at least 80%

Cc1cc(NC(=O)c2ccc(C#N)cc2C)cc(C2=NOC(c3cc(Cl)cc(Cl)c3)(C(F)(F)F)C2)c1 (stereo not shown) [E3]
control of Diabrotica balteata [1]: at least 80% | control of Plutella xylostella [4]: at least 80% | control of Heliothis virescens [2]: at least 80%

Cc1cc(NC(=O)c2ccc(F)cc2Cl)cc(C2=NOC(c3cc(Cl)cc(Cl)c3)(C(F)(F)F)C2)c1 (stereo not shown) [E4]
control of Heliothis virescens [2]: at least 80%

Cc1cc(NC(=O)c2ccc(C#N)cc2Cl)cc(C2=NOC(c3cc(Cl)cc(Cl)c3)(C(F)(F)F)C2)c1 (stereo not shown) [E5]
control of Diabrotica balteata [1]: at least 80% | control of Plutella xylostella [4]: at least 80% | control of Heliothis virescens [2]: at least 80%
